# Assay results: PubChem BioAssay AID624297 (National Center for Advancing Translational Sciences (NCATS), 2012)
# About 6,200 (1.8%) of roughly 340,000 compounds were called active. Inconclusive means that the source gave no clear call. Such entries were picked first, then a sample of the others. The call rests on the fitted dose curve; in most records, active means well fitted activation curve with a large enough effect; inconclusive means small, poorly fitted or top-dose-only effect; inactive means no such curve, though single readings can be large or run the other way. Potencies beside an inconclusive call are fits to weak or partial responses and may not hold up.
# Assay: A quantitative high throughput screen for small molecules that induce DNA re-replication in SW480 colon adenocarcinoma cells. Further: nearly all actives have a fitted effect of over 55% in size. On re-replication activation: % of control where 0% means no effect.
# Settings: Hoechst DNA content imaging, 48 h; re-replication activation: at 46.1 µM (top of the series) unless noted
# In short: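 Image-based read-out: total Hoechst fluorescence of nuclei (405 nm excitation, 500-530 nm emission), with hits raising the fraction of high-intensity nuclei. SW480 colon cells incubated 48 hr with compounds at 37 C.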
# Potency means the concentration at half of the fitted maximal effect.
Structure (SMILES),re-replication activation,Potency
Cc1ccccc1CN(C)C(=O)COC(=O)c1ccc2[nH]c(C)c(C)c2c1,inactive: -3.7%,
Cc1cc(C)c(NC(=O)C2CCCN(S(=O)(=O)c3c(C)noc3/C=C/N(C)C)C2)c(C)c1 (centres undefined),,"inconclusive: 0.184 µM [activator, full curve, poor fit]"
O=C(Nc1cccc(S(=O)(=O)Nc2ccc(Cl)cc2)c1)c1ccc2c(c1)OCCO2,,"inconclusive: 18.4 µM [activator, single point]"
Fc1ccccc1N1CC(c2ccccc2)C(c2cccs2)=N1 (centres undefined),,"inconclusive: 3.26 µM [activator, full curve, poor fit]"
Oc1ccc(/C=N/Nc2ncc(Br)cn2)c(O)c1,,"inconclusive: 4.61 µM [activator, full curve]"
Cn1cccc1/C=N\NC(=O)Cc1ccc(Br)c2ccccc12,,"inconclusive: 0.82 µM [activator, partial curve, poor fit]"
CC(C)NC(=O)c1nn2c(C(F)(F)F)cc(-c3ccco3)nc2c1Cl,,"inconclusive: 0.58 µM [activator, single point]"
Cc1ccc(Cl)cc1NC(=O)CCC(=O)O,inactive: -7.24%,
COc1ccc(CCNC(=O)c2cc(Cl)nc3ccccc23)cc1,,"inconclusive: 29.1 µM [activator, single point]"
COc1ccc(N(C(=O)CNC(=O)c2ccco2)C(C(=O)NC2CCCC2)c2cccnc2)cc1 (centres undefined),inactive: -9.45%,
CC(=O)C1=C(O)C(=O)N(c2ccc(Br)cn2)C1c1ccccc1F (centres undefined),inactive: 0.505% [at 9.22 µM],
COCC1CCN(Cc2cn(C)nc2-c2cccc(Cl)c2)C1 (centres undefined),inactive: 4.19%,
S=c1[nH]nc(-c2cc(-c3ccccc3)n[nH]2)n1/N=C/C(Br)=C/c1ccccc1,,"inconclusive: 3.66 µM [activator, partial curve, poor fit]"
CCc1ccc(C(=O)C(C)OC(=O)Cc2n[nH]c(=O)c3ccccc23)cc1 (centres undefined),,"inconclusive: 18.4 µM [activator, single point]"
N#Cc1ccccc1CSC1=NCCS1,inactive: 23.4%,
Cc1ccc(C)c(NC(=S)N2CCN(S(=O)(=O)c3ccccc3)CC2)c1,,"inconclusive: 29.1 µM [activator, single point]"
Cc1cc(C)c2c(N)c(C(=O)Nc3ccc(C)c(C)c3)sc2n1,inconclusive: 92.2% [activator],
Cc1ccc2nc(N(CCN3CCOCC3)C(=O)CCS(=O)(=O)c3ccccc3)sc2c1,,"inconclusive: 16.4 µM [activator, single point]"
CCCN1CNc2c(c(=O)[nH]c(=S)n2CCc2ccc(OC)c(OC)c2)C1,inactive: -2.96%,
NS(=O)(=O)c1ccc(CCNC(=O)c2cc(-c3cc(Cl)ccc3O)n[nH]2)cc1,,"inconclusive: 23.1 µM [activator, single point]"
CCOC(=O)c1ccc(S(=O)(=O)NCCNCc2ccccc2)cc1,inactive: 1.86%,
Cc1ccc(NC(=O)Cn2nc(-c3ccccc3Cl)ccc2=O)c(Br)c1,,"inconclusive: 4.11 µM [activator, single point]"
O=S(=O)(CCNC1CC1)NC1CCCCC1,,"inconclusive: 29.1 µM [activator, single point]"

Structure (SMILES),re-replication activation,Potency
Cc1csc(NC(=O)CSc2nnc(-c3cc(C)on3)o2)n1,inactive: 0.924%,
COc1ccc(Br)cc1S(=O)(=O)n1ccnc1,inactive: 1.69%,
Cc1c(C)c2ccc(OC(C)C(=O)NC3CCN(Cc4ccccc4)CC3)cc2oc1=O (centres undefined),,"inconclusive: 15.8 µM [activator, single point]"
CCCn1c(SCC(=O)Nc2cc(Cl)ccc2OC)nc(O)cc1=O,,"inconclusive: 23.1 µM [activator, single point]"
Cc1cccc(C)c1NC(=O)CSc1n[nH]c(=O)n1C1CC1,,"inconclusive: 20.6 µM [activator, partial curve, poor fit]"
COc1ccc(C2CC(c3ccccc3)=NN2C(=O)COC(=O)C2(C)CC2(Cl)Cl)cc1 (centres undefined),inactive: 7.66%,
CCCC(C(=O)NC1CCCC1)N(Cc1cccs1)C(=O)c1snc(C(N)=O)c1N (centres undefined),inactive: -1.09%,
CCCN1C(=O)c2cc(C(=O)Nc3ccccc3C)ccc2C1Nc1ccccc1C (centres undefined),,"inconclusive: 29.1 µM [activator, single point]"
NC(=O)/C(=C\c1ccccc1)NC(=O)c1ccc(NC(=O)c2ccccc2)cc1,,"inconclusive: 23.1 µM [activator, single point]"
Cc1cccc(NC(=S)NCc2ccco2)n1,inactive: 4.52%,
Cc1[nH]c2ccccc2c1N=Nc1c(C)n(C)n(-c2ccccc2)c1=O,inactive: -2.16%,
O=C(CCS(=O)(=O)c1ccccc1)Nc1nc2cc3c(cc2s1)OCCO3,,"inconclusive: 29.1 µM [activator, single point]"
Nc1nc(NCCCN2CCOCC2)nc(Nc2ccc(Cl)cc2)c1[N+](=O)[O-],,"inconclusive: 16.4 µM [activator, single point]"
CCn1c(SCC(=O)Nc2ccccc2)nc2nc3c(cc2c1=O)COC(C)(C)C3,inactive: 2.47%,
CC(C)CN1C(=O)c2ccc(NC(=O)C3CC3)cc2C1=O,,"inconclusive: 29.1 µM [activator, single point]"
COc1cccc(C(=O)NC(C)c2ccc(-c3ccccc3)cc2)c1OC (centres undefined),,"inconclusive: 29.1 µM [activator, single point]"
CN(c1cccc(NC(=O)c2ccccc2N(Cc2ccccc2)S(C)(=O)=O)c1)S(C)(=O)=O,inactive: 1.09%,
COc1cc2sc3cc(NCC[C@@H]4CCCN4C)ccc3c(=O)c2cc1OC,,"inconclusive: 16.4 µM [activator, single point]"
C#CCN1c2ccccc2Sc2cccnc21,,"inconclusive: 23.1 µM [activator, partial curve, poor fit]"
COC(=O)C1CCN(C(=O)C2CCC(=O)N(CCc3cccc(F)c3)C2)CC1 (centres undefined),,"inconclusive: 20.6 µM [activator, partial curve, poor fit]"
Clc1ccc(-c2csc(N/N=C/c3cccnc3)n2)c(Cl)c1,,"inconclusive: 7.31 µM [activator, partial curve, poor fit]"
CCCCCn1nc(C)c(/C=N/NC(=O)c2ccoc2C)c1C,,"inconclusive: 29.1 µM [activator, partial curve, poor fit]"
O=C(COC(=O)CCNS(=O)(=O)c1ccc(Cl)cc1)Nc1ccccc1OC(F)F,inactive: 2.87%,

Structure (SMILES),re-replication activation,Potency
Cc1nc2sc(-c3ccccc3)cc2c(=O)[nH]1,,"inconclusive: 23.1 µM [activator, single point]"
O=C(N/N=C\c1ccccn1)C1c2ccccc2Oc2ccccc21,,active: 18.4 µM
COc1ccc(NC(=O)/C(C#N)=C/c2c(C)nn(-c3ccc(F)cc3)c2Cl)cc1Cl,,"inconclusive: 1.3 µM [activator, full curve]"
CCCc1[nH]nc2c1C1(CCN(C(=O)OCc3ccccc3)CC1)C(C#N)=C(N)O2,,"inconclusive: 16.4 µM [activator, single point]"
Cc1cccc(CSc2cccc3cccnc23)c1,,active: 6.51 µM
Cc1nc(-c2ccccc2)sc1C(=O)/C=C/c1ccccc1,,"inconclusive: 20.6 µM [activator, single point]"
N=C1S/C(=C\c2ccco2)C(=O)N1c1ccc2c(c1)OCO2,,"inconclusive: 29.1 µM [activator, single point]"
COCc1ccc(CN2CCCC(CO)(Cc3cccc(OC)c3)C2)o1 (centres undefined),,"inconclusive: 0.58 µM [activator, full curve, poor fit]"
CC(=O)N1CCN(c2ccc(NCc3ccc(-c4ccc(Br)cc4)o3)cc2)CC1,,active: 13 µM
C[C@H](N)C(=O)NC[C@H]1O[C@@H](n2cnc3c(N)ncnc32)[C@H](O)[C@@H]1O,,"inconclusive: 29.1 µM [activator, single point]"
Cc1cccn2c(=O)c3cc(C(=O)NCC4CCCO4)c(=N)n(Cc4cccnc4)c3nc12 (centres undefined),,active: 9.2 µM
Cc1ccnc(N2CCC(C(=O)Nc3ccc4c(c3)OCO4)CC2)n1,inactive: 1.15%,
CCc1ccc(/C=C/C(=O)c2c(C)cc(C)[nH]c2=O)cc1,,"inconclusive: 20.6 µM [activator, single point]"
Cc1cccc(Nc2nc(N)c([N+](=O)[O-])c(N3CCCC(C)C3)n2)c1 (centres undefined),,"inconclusive: 29.1 µM [activator, single point]"
Cc1ccc(Nc2nc(Cl)c(C=O)s2)cc1Cl,,"inconclusive: 18.4 µM [activator, partial curve, poor fit]"
CC1N(C(=O)N2CCOCC2)CCN1S(=O)(=O)c1ccc(Cl)cc1 (centres undefined),inactive: -44.3%,
CCCn1ncc(CN2CCN(Cc3ccsc3)C(CCO)C2)c1C (centres undefined),inactive: 5.08% [at 1.84 µM],
CCN(CC(=O)Nc1c(F)cccc1F)C(=O)CSC(=S)N1CCCC1,inactive: -5.77%,
COc1ccc(-c2cc(-c3ccccc3)c(C#N)c(SCC(=O)O)n2)cc1,,"inconclusive: 18.4 µM [activator, partial curve, poor fit]"
O=[N+]([O-])c1cccc(COc2cccc(CN3CCCC3)c2)c1,,"inconclusive: 29.1 µM [activator, single point]"
O=C(Nc1ccc(OC(F)(F)F)cc1)Nc1cccc([N+](=O)[O-])c1,,"inconclusive: 29.1 µM [activator, single point]"
CN(CCNC(=O)C1CCCN(c2ncnc3c2nc2n3CCCCC2)C1)Cc1ccccc1 (centres undefined),,"inconclusive: 18.4 µM [activator, single point]"
COc1ccc(S(=O)(=O)N(C)C[C@H]2Oc3c(NC(=O)Nc4c(C)noc4C)cccc3C(=O)N([C@@H](C)CO)C[C@H]2C)cc1,inactive: -1.03%,

# Four compounds picked at random from those above, as already listed:
Structure (SMILES),re-replication activation,Potency
Cc1cccc(Nc2nc(N)c([N+](=O)[O-])c(N3CCCC(C)C3)n2)c1 (centres undefined),,"inconclusive: 29.1 µM [activator, single point]"
C[C@H](N)C(=O)NC[C@H]1O[C@@H](n2cnc3c(N)ncnc32)[C@H](O)[C@@H]1O,,"inconclusive: 29.1 µM [activator, single point]"
CN(CCNC(=O)C1CCCN(c2ncnc3c2nc2n3CCCCC2)C1)Cc1ccccc1 (centres undefined),,"inconclusive: 18.4 µM [activator, single point]"
Cc1ccnc(N2CCC(C(=O)Nc3ccc4c(c3)OCO4)CC2)n1,inactive: 1.15%,
